Record: PubChem BioAssay AID504786 (Drosophila RNAi Screening Center, 2011)
Screen: 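Knock-downs reducing HIF reporter induction by the iron chelator DFO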 (primary screen). Cell system: Drosophila S2 cells with a stable HIF luciferase reporter. Reagents: long dsRNA against Drosophila genes, about 0.2 µg dsRNA per well of a 384-well plate. Duration: three days of knock-down, then 20 h of DFO before reading. Conditions: desferrioxamine (DFO) at 100 µM, an iron chelator that mimics hypoxia, for 20 h. Measured: 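Firefly luciferase driven by the mouse ldh-a hypoxia-response element, measured after 20 h of 100 µM DFO; z-scores per plate, higher means more signal lost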. Scale: z-score: higher = stronger loss of HIF reporter signal.
The deposit covers about 21,000 reagents; shown is a random part of those that have a named target and a result. 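Primary screen; positive scores mean lost reporter signal, so the sign may be inverted from the usual convention.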 Reagents against one gene are numbered here. Not all columns of the deposit are shown.

z-score, replicate 1, by gene and reagent
CG11362: #1 -0.4
CG9503: #1 -0.4
CG11498: #1 -0.4
Nplp1: #1 -0.2
cnn: #1 -0.2; #2 -0.4
ND-B14.5A: #1 -0.2
CG11322: #1 -0.4
E(spl)m4-BFM: #1 -0.4
Ir41a: #1 0.1; #2 -0.2
Obp19c: #1 0
CG31082 (retired record): #1 -0.6
CG6055: #1 -0.4
COX8: #1 1.7
Mip: #1 -0.3
AttA: #1 -0.2
Mocs1: #1 -0.3
Gr98a: #1 0.6
wg: #1 -0.3
tgy: #1 -0.4
CG9663: #1 -0.2
lncRNA:sphinx: #1 0.7
LeuRS: #1 -0.2
Akr1B: #1 -0.4
CR46300: #1 -0.1
Zpr1: #1 -0.3
js: #1 -0.5
CG14331: #1 -0.2
Nup75: #1 -0.1
cysu: #1 -0.2
CG31562 (retired record): #1 -0.1; #2 -0.3
CG34217: #1 -0.1

Laid out differently: 3 of the entries above
| Gene | dsRNA no. | z-score, replicate 1 |
| --- | --- | --- |
| CG6055 | 1 | -0.4 |
| COX8 | 1 | 1.7 |
| Mip | 1 | -0.3 |
